Assay results taken from PMC12509343.
Construct, isoform or probe ends are uncertain for at least one entry.

Columns and labels:
[1] = tested on: CmVNI2 (GST-CmVNI2) (Chrysanthemum morifolium); test: EMSA; conditions: 1 ug protein, 2 nM probe; EMSA: room temperature, 30 min; 6% native PAGE, 0.5x TBE, 60 V, 4 C; binding buffer, salt and pH not stated; recombinant protein; protein details: N-terminal GST (pGEX-4T-2); label: 5' biotin
[2] = tested on: CmVNI2 (GST-CmVNI2) (Chrysanthemum morifolium); test: competition with a labelled probe; conditions: cold competitor, dose-dependent, EMSA: room temperature, 30 min, 6% native PAGE, 0.5x TBE, 60 V, 4 C, binding buffer, salt and pH not stated, recombinant protein, protein details: N-terminal GST (pGEX-4T-2)

Sequence | binding result [1] | other results
TTTTAGTCTTACGTACATAA (double strand) [CmMYB3 promoter probe] | binds | 
CCAACATTACGTACAAAACA (double strand) [CmF3H promoter probe] | binds | 
TTTTAGTCTTACGTACATAA (double strand) [CmMYB3 promoter competitor (cold)] |  | binding result ([2]; vs biotin-CmMYB3 probe): binds
CCAACATTACGTACAAAACA (double strand) [CmF3H promoter competitor (cold)] |  | binding result ([2]; vs biotin-CmF3H probe): binds
